Measured values taken from publication PMC5342215.
Results are given in words; binding and its absence hold for the method and conditions named. In cells and extracts the contact can be indirect. Some results given as binding are weak or reduced against the parent protein; the word gives no strength.

Amino acid sequences for entries named in this document (tags omitted).
UniProt P46109: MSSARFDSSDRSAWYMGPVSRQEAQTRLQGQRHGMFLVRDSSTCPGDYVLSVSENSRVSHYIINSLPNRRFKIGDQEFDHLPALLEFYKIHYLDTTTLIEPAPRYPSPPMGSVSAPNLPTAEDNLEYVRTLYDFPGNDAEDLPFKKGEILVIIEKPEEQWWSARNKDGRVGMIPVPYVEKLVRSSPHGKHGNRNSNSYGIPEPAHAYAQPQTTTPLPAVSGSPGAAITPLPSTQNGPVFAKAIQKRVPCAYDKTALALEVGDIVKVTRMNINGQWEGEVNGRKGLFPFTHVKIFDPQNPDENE
UniProt P62993: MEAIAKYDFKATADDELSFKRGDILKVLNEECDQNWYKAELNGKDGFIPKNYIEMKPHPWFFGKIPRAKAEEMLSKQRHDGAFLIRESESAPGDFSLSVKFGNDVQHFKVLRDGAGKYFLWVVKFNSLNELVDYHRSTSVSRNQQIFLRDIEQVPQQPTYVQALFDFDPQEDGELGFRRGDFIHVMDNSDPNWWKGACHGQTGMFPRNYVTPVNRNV

T1: RapGEF1 (human (endogenous in primary CD4+ T cells)) (UniProt Q13905)
T1 sequence: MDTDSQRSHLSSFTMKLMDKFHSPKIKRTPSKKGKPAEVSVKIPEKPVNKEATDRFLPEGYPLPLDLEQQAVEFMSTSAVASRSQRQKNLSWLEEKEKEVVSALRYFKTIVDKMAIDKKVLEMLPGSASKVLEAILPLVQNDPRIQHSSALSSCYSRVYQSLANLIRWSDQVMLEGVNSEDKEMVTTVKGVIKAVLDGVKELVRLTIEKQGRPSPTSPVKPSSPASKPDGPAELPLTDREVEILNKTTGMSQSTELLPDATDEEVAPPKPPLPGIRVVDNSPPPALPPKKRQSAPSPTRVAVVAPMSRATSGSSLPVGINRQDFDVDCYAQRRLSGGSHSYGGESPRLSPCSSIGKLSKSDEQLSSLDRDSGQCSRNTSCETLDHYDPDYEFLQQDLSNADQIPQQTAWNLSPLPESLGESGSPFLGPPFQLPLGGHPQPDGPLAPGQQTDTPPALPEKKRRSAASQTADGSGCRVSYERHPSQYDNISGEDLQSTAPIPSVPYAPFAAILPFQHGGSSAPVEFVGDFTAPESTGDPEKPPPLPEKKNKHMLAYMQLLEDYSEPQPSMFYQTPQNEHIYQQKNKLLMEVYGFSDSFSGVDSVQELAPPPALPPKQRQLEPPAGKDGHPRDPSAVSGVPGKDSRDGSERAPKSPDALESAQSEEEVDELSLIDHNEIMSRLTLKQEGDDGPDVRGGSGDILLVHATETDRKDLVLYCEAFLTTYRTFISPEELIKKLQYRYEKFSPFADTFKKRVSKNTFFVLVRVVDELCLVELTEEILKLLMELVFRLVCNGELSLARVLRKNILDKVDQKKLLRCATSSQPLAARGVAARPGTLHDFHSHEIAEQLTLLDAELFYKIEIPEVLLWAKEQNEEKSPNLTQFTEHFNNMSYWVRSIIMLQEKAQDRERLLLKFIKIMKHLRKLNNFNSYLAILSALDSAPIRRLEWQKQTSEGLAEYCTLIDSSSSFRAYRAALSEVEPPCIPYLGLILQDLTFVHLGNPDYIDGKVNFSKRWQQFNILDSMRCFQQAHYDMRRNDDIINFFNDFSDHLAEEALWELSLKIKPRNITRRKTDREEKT

T2: dynamin2 (human (endogenous in primary CD4+ T cells)) (UniProt P50570)
T2 sequence: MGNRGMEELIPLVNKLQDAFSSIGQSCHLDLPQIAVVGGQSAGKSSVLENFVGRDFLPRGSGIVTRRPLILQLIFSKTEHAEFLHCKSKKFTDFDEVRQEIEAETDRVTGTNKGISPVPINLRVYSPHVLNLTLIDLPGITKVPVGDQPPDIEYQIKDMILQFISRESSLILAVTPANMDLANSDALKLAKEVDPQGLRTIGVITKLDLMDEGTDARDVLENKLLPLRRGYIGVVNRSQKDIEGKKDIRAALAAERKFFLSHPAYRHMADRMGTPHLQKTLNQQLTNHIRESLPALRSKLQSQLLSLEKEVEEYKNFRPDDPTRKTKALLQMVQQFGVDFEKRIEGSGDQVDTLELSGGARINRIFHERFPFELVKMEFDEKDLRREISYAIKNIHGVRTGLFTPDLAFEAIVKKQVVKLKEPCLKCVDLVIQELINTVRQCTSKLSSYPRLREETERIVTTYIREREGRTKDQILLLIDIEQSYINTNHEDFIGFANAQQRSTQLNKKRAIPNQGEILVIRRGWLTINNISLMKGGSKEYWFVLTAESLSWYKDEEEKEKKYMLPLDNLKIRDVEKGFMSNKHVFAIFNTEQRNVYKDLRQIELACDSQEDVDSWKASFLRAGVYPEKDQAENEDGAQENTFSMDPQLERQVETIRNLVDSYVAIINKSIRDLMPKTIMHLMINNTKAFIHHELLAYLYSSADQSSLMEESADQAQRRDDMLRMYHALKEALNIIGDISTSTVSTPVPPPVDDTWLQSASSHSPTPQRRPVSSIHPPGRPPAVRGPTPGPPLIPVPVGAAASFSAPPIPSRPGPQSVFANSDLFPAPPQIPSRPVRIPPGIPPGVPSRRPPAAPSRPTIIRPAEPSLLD

B1: vav1 (protein, UniProt P15498 1-845)
chain: MELWRQCTHWLIQCRVLPPSHRVTWDGAQVCELAQALRDGVLLCQLLNNLLPHAINLREVNLRPQMSQFLCLKNIRTFLSTCCEKFGLKRSELFEAFDLFDVQDFGKVIYTLSALSWTPIAQNRGIMPFPTEEESVGDEDIYSGLSDQIDDTVEEDEDLYDCVENEEAEGDEIYEDLMRSEPVSMPPKMTEYDKRCCCLREIQQTEEKYTDTLGSIQQHFLKPLQRFLKPQDIEIIFINIEDLLRVHTHFLKEMKEALGTPGAANLYQVFIKYKERFLVYGRYCSQVESASKHLDRVAAAREDVQMKLEECSQRANNGRFTLRDLLMVPMQRVLKYHLLLQELVKHTQEAMEKENLRLALDAMRDLAQCVNEVKRDNETLRQITNFQLSIENLDQSLAHYGRPKIDGELKITSVERRSKMDRYAFLLDKALLICKRRGDSYDLKDFVNLHSFQVRDDSSGDRDNKKWSHMFLLIEDQGAQGYELFFKTRELKKKWMEQFEMAISNIYPENATANGHDFQMFSFEETTSCKACQMLLRGTFYQGYRCHRCRASAHKECLGRVPPCGRHGQDFPGTMKKDKLHRRAQDKKRNELGLPKMEVFQEYYGLPPPPGAIGPFLRLNPGDIVELTKAEAEQNWWEGRNTSTNEIGWFPCNRVKPYVHGPPQDLSVHLWYAGPMERAGAESILANRSDGTFLVRQRVKDAAEFAISIKYNVEVKHIKIMTAEGLYRITEKKAFRGLTELVEFYQQNSLKDCFKSLDTTLQFPFKEPEKRTISRPAVGSTKYFGTAKARYDFCARDRSELSLKEGDIIKILNKKGQQGWWRGEIYGRVGWFPANYVEEDYSEYC

Tests used:
[1] = biological target: T1, RapGEF1 (human (endogenous in primary CD4+ T cells)); assay: co-IP; anti-RapGEF1 antibody (or isotype control) on Protein G Dynabeads; lysate of primary human resting CD4+ T cells in Triton lysis buffer (10mM HEPES, 2mM MgCl2, 10mM KCl, 0.5mM EDTA, 150mM NaCl, 0.5% Triton), 4h at 4°C; cells stimulated with 50ng/ml PMA if indicated; western blot
[2] = biological target: T2, dynamin2 (human (endogenous in primary CD4+ T cells)); assay: co-IP; anti-dynamin2 antibody (or isotype control) on Protein G Dynabeads; lysate of primary human resting CD4+ T cells in Triton lysis buffer (10mM HEPES, 2mM MgCl2, 10mM KCl, 0.5mM EDTA, 150mM NaCl, 0.5% Triton), 4h at 4°C; cells stimulated with 50ng/ml PMA if indicated; western blot

Row | binding [1] | binding [2] | Molecule
1 | binds |  | CRK-L (from UniProt P46109 1-303)
2 | binds |  | Grb2 (from UniProt P62993 1-217)
3 |  | binds | B1
